# Data as given in PMC12040169 (PLOS Biology, 2025).
# The list shows a part of the results.
# System: T1, CTL2-GFP (C. trachomatis L2/434/Bu, GFP-expressing)
# T1 construct: L2/434/Bu, GFP-expressing
# Parameters: species or system HeLa; Intracellular C. trachomatis growth in HeLa cells, bulk GFP fluorescence relative to DMSO
# Details: bulk GFP, single well; 28.5 h, 10 µM; inhibitor
row,Structure (SMILES),% of control remaining [%]
1,Cc1nn(C)cc1S(=O)(=O)Nc1ccc2c(ccn2C)c1 [CBK282806],158.198
2,Cc1ccc(NC(=O)CC2Nc3ccccc3OC2=O)cc1C (stereo not drawn) [CBK270214],156.727
3,CCSc1nnnn1-c1cccc(NC(C)=O)c1 [CBK305511],117.05
4,CC(C)(C)OC(=O)N1CCC(Oc2nccnc2Cl)CC1 [CBK067386],149.858
5,O=C(c1ccncc1)N1CCCCC1c1nc2ccccc2[nH]1 (stereo not drawn) [CBK281641],121.02
6,COc1ccc(S(=O)(=O)N2CCSC2)cc1C [CBK097882],99.0471
7,COC(=O)c1cc(=O)c2ccccc2o1 [CBK000064],127.11
8,Cc1nc(NC(=O)Cn2nc(N3CCSCC3)ccc2=O)sc1C [CBK307622],70.097
9,COc1ccc(-n2c(=O)[nH]cc(C(=O)Nc3cc(C)ccc3OC)c2=O)cc1 [CBK287548],111.231
10,N/C(=N\OC(=O)c1cc(-c2ccccc2)nc2ccccc12)c1cccnc1 [CBK265106],195.531
11,Cc1nn(-c2ccccn2)c(C)c1[C@@H]1C=C[C@@H](NS(C)(=O)=O)C1 [CBK289169],131.611
12,CC(=O)Nc1ccc(S(=O)(=O)N2CCCCC2C(=O)O)cc1 (stereo not drawn) [CBK265241],120.75
13,CC(=O)Nc1cccc(NC(=O)c2ccc(CN3CCCCC3)cc2)c1 [CBK295596],141.481
14,FC(F)(F)c1ccc(SCc2ccc(Cl)c(Cl)c2)nc1 [CBK103713],106.591
15,CC(C)C(=O)NCCn1nc(-c2ccccc2F)cc1CN(C)C [CBK281693],134.941
16,COc1cc(C(C[N+](=O)[O-])c2c(C)[nH]c3ccccc23)ccc1O (stereo not drawn) [CBK115317],108.683
17,O=C(O)C(c1c[nH]c2ccccc12)N1CCc2ccccc2C1 (stereo not drawn) [CBK286664],118.045
18,CSc1nc(C)c(CCC(=O)Nc2ccc(N3CC(C)OC(C)C3)nc2)c(C)n1 (stereo not drawn) [CBK298266],135.877
19,CCn1nc(C)c(-c2cncn2Cc2ccccc2CN(C)C)c1C [CBK281998],129.842
20,COc1ccc2c3c(cc(Cl)cc13)CC(N)C2 (stereo not drawn) [CBK016450C],86.269
21,CCNC(=O)Nc1c[nH]nc1C1CCCN(c2cccc(F)c2C#N)C1 (stereo not drawn) [CBK306406],129.07

row,Structure (SMILES),% of control remaining [%]
1,NC(=O)CSc1nnc(-c2cc3ccccc3o2)n1Cc1ccccc1 [CBK268964],152.865
2,Cc1ccc(CN2C(=O)CC(Sc3ncccc3C(=O)O)C2=O)cc1 (stereo not drawn) [CBK270006],99.4166
3,Nc1nc(CN2C(=O)c3ccccc3C2=O)n[nH]1 [CBK266655],118.897
4,CCOc1ccccc1NC(=O)NC(=O)C1CCN(C(C)c2ccc(Cl)cc2)CC1 (stereo not drawn) [CBK034899],142.807
5,CN(C)c1cccc(-c2cncc(NCCCO)n2)c1 [CBK065619],88.6117
6,Cc1ccn(CCNC(=O)c2cc(-c3cccs3)no2)n1 [CBK282679],118.201
7,CCn1cc(C2CN(S(=O)(=O)c3c(C)c(C)cc(C)c3C)CCO2)cn1 (stereo not drawn) [CBK306171],129.273
8,Cc1sc2ncn(Cc3c(Cl)cccc3Cl)c(=O)c2c1C [CBK265355],100
9,CCCCn1c(SCC(=O)NCC2(c3ccc4c(c3)OCCO4)CCCC2)n[nH]c1=O [CBK296736],113.663
10,C[C@H]1CN([C@H]2C[C@@H](O)[C@@H](CO)O2)C(=O)NC1=O [CBK201206],118.65
11,CCc1[nH]c2ccc(C(=O)NCCn3ccnc3C)cc2c1C [CBK282505],125.518
12,c1cncc(-c2cncc(NCCc3c[nH]c4ccccc34)n2)c1 [CBK065186],114.86
13,Cc1cccc(C)c1N(C1CCNCC1)S(=O)(=O)c1ccc2c(c1)CCO2 [CBK153668T],109.988
14,CCOC(=O)c1c(C)n(-c2ccc(OC)cc2)c2ccc(O)c(CN(C)C)c12 [CBK261609C],115.821
15,CC(c1ccc(F)c(F)c1)N(C)C(=O)CN1CCCc2occc2C1 (stereo not drawn) [CBK304456],128.008
16,CCOc1ccc(-c2cncc(Nc3ccc(C#N)cc3)n2)cc1 [CBK065862],123.389
17,CC(=O)Nc1ccc(CN2CCCCCC2c2cc(C)no2)cc1 (stereo not drawn) [CBK285415],127.689
18,COc1ccccc1-c1noc(CCCC(=O)Nc2cccnc2)n1 [CBK268848],116.608
19,Cn1nc(C2CCN(C(=O)C3CCCC3)CC2)c2cccnc21 [CBK284899],85.6308
20,Cc1nc2c(OCC(=O)c3ccc(Cl)cc3Cl)cccn2c1N(C)CC1CC1 [CBK147294],131.827
21,O=C(NCC(O)c1ccccc1)c1ccc(Cl)c(S(=O)(=O)N2CCCCC2)c1 (stereo not drawn) [CBK269197],102.39

row,Structure (SMILES),% of control remaining [%]
1,COc1ccc(-c2cnc3[nH]c(=O)n(CCN4CCOCC4)c3n2)cc1 [CBK064782],94.3339
2,CC1CCc2n[nH]c(C(=O)N(C)CCc3ccncc3)c2C1 (stereo not drawn) [CBK283195],111.74
3,CCN(CC)CCCNC(=O)N1CCN(c2ccc(F)cc2)CC1 [CBK156419],195.946
4,CC(=O)Nc1ccc(-c2ccc(COC3CCN(C(=O)Cc4ccc(C#N)cc4)CC3)cc2)cc1 [CBK149225],94.1558
5,CCOc1ccc(OC(=O)c2cccc(C)c2)cc1 [CBK083575],102.531
6,CC1CCc2c(sc(NC(=O)c3ccno3)c2C(N)=O)C1 (stereo not drawn) [CBK287752],98.339
7,CCOCCn1c(N2CCCC(C)C2)nc2c1c(=O)[nH]c(=O)n2C (stereo not drawn) [CBK304304],112.334
8,Cn1c(NCc2ccco2)nc2c1c(=O)n(Cc1cccc(Br)c1)c(=O)n2C [CBK268863],97.6717
9,Cc1nc(CN2CCCC(NCc3ccc(C(N)=O)cc3)C2)no1 (stereo not drawn) [CBK304962],89.9055
10,CN(C)CC(=O)NC(Cc1ccsc1)c1nccs1 (stereo not drawn) [CBK284801],119.946
11,COc1ccc2cc(COC(=O)c3cnc(C)cn3)c(Cl)nc2c1 [CBK295288],115.356
12,CC(=O)Nc1nnc(-c2ccc(Cl)cc2)s1 [CBK287331],122.866
13,Cc1cc(-c2nnc(SCC(=O)N3CCOCC3)o2)no1 [CBK268984],70.1817
14,Cc1ccc(NS(=O)(=O)c2cccs2)cc1 [CBK045362],163.404
15,CC(C)C(=O)NC(=S)Nc1ccc2oc(-c3ccncc3)nc2c1 [CBK269702],139.066
16,CCCc1n[nH]c(C2CC2)c1C(=O)OCC [CBK115714],112.633
17,CCCN1CC(NS(=O)(=O)c2ccc3oc(=O)n(C)c3c2)CC1=O (stereo not drawn) [CBK307664],106.641
18,c1ccc(N2CCN(c3cncc(-c4cccs4)n3)CC2)nc1 [CBK065502],121.374
19,O=C(c1cccnc1)N1CCN(CCN2C(=O)C3C4C=CC(C4)C3C2=O)CC1 (stereo not drawn) [CBK263639],100
20,O=[N+]([O-])c1ccc(S(=O)(=O)N2CCN(S(=O)(=O)c3ccc(Cl)cc3)CC2)cc1 [CBK264312],122.578
21,CS(=O)(=O)c1ccccc1S(=O)(=O)N1CCN(c2nc3ccccc3s2)CC1 [CBK269468],120.53

# Copied from the list:
# % of control remaining [%], CC(=O)Nc1ccc(S(=O)(=O)N2CCCCC2C(=O)O)cc1 (stereo not drawn) [CBK265241] is entered as 120.75
# % of control remaining [%], CC(=O)Nc1ccc(CN2CCCCCC2c2cc(C)no2)cc1 (stereo not drawn) [CBK285415] is entered as 127.689
# % of control remaining [%], CC(=O)Nc1nnc(-c2ccc(Cl)cc2)s1 [CBK287331] is entered as 122.866

# Next entries

row,Structure (SMILES),% of control remaining [%]
1,NC(C(=O)O)C(O)c1ccccc1[N+](=O)[O-] (stereo not drawn) [CBK262389],100
2,FC(F)(F)c1ccc(OCCN2CCOCC2)nc1 [CBK113461],71.4439
3,Cn1cnc2cc(NCc3cc(-c4ccc(F)cc4)c[nH]c3=O)ccc21 [CBK284693],117.878
4,COC(=O)c1c(NC(=S)Nc2ccn(C)n2)sc2c1CCCCC2 [CBK266888],101.038
5,CN(C(=O)Cc1ccccc1)c1ccccc1 [CBK012581],102.622
6,O=C(NCCN1CCCC1)c1cnc2cc(C(F)(F)F)ccc2c1O [CBK107426],141.571
7,O=C(CN(c1ccccc1)S(=O)(=O)c1ccccc1)N1CCN(Cc2ccc3c(c2)OCO3)CC1 [CBK265290],124.872
8,CCC(=O)N1CCC2(C/C=C/CC(=O)Nc3cccc(n3)C3CN(CCO3)C(=O)CN(C)C2=O)CC1 (stereo not drawn) [CBK292004],138.428
9,COc1ccccc1-c1nccnc1N1CCCC1CO (stereo not drawn) [CBK036735],151.634
10,Cc1ccc(-c2noc(CN3CCN(c4ccccn4)CC3)n2)cc1 [CBK266457],138.493
11,CC(=O)NCC(CN1CCOCC1)([N+](=O)[O-])[N+](=O)[O-] [CBK261337],116.443
12,CN(Cc1nc2ccccc2c(=O)[nH]1)Cc1cc2c(cc1Br)OCCO2 [CBK296715],90.9001
13,NC1=C(c2nc3ccccc3s2)C(=O)CN1CCCN1CCOCC1 [CBK265925],229.638
14,c1cncc(-c2nccnc2NCCCN2CCOCC2)c1 [CBK037286],122.64
15,CC(C)c1nccn1CCCn1cncc1-c1cnn(C)c1 [CBK281812],141.992
16,CC(=O)Nc1ccc(-c2nc[nH]c2Br)cc1 [CBK019063],98.2107
17,CCN(CC)C(=O)CCc1nc2sc3c(c2c(=O)[nH]1)CCCC3 [CBK305069],130.008
18,CCn1c(C(C)NC2CCN(CC(=O)OC)CC2)nc2ccccc21 (stereo not drawn) [CBK305396],82.456
